Test results taken from doi:10.1101/721316.

The chains behind the UniProt entries cited, without tags or fusion partners.
UniProt P21333: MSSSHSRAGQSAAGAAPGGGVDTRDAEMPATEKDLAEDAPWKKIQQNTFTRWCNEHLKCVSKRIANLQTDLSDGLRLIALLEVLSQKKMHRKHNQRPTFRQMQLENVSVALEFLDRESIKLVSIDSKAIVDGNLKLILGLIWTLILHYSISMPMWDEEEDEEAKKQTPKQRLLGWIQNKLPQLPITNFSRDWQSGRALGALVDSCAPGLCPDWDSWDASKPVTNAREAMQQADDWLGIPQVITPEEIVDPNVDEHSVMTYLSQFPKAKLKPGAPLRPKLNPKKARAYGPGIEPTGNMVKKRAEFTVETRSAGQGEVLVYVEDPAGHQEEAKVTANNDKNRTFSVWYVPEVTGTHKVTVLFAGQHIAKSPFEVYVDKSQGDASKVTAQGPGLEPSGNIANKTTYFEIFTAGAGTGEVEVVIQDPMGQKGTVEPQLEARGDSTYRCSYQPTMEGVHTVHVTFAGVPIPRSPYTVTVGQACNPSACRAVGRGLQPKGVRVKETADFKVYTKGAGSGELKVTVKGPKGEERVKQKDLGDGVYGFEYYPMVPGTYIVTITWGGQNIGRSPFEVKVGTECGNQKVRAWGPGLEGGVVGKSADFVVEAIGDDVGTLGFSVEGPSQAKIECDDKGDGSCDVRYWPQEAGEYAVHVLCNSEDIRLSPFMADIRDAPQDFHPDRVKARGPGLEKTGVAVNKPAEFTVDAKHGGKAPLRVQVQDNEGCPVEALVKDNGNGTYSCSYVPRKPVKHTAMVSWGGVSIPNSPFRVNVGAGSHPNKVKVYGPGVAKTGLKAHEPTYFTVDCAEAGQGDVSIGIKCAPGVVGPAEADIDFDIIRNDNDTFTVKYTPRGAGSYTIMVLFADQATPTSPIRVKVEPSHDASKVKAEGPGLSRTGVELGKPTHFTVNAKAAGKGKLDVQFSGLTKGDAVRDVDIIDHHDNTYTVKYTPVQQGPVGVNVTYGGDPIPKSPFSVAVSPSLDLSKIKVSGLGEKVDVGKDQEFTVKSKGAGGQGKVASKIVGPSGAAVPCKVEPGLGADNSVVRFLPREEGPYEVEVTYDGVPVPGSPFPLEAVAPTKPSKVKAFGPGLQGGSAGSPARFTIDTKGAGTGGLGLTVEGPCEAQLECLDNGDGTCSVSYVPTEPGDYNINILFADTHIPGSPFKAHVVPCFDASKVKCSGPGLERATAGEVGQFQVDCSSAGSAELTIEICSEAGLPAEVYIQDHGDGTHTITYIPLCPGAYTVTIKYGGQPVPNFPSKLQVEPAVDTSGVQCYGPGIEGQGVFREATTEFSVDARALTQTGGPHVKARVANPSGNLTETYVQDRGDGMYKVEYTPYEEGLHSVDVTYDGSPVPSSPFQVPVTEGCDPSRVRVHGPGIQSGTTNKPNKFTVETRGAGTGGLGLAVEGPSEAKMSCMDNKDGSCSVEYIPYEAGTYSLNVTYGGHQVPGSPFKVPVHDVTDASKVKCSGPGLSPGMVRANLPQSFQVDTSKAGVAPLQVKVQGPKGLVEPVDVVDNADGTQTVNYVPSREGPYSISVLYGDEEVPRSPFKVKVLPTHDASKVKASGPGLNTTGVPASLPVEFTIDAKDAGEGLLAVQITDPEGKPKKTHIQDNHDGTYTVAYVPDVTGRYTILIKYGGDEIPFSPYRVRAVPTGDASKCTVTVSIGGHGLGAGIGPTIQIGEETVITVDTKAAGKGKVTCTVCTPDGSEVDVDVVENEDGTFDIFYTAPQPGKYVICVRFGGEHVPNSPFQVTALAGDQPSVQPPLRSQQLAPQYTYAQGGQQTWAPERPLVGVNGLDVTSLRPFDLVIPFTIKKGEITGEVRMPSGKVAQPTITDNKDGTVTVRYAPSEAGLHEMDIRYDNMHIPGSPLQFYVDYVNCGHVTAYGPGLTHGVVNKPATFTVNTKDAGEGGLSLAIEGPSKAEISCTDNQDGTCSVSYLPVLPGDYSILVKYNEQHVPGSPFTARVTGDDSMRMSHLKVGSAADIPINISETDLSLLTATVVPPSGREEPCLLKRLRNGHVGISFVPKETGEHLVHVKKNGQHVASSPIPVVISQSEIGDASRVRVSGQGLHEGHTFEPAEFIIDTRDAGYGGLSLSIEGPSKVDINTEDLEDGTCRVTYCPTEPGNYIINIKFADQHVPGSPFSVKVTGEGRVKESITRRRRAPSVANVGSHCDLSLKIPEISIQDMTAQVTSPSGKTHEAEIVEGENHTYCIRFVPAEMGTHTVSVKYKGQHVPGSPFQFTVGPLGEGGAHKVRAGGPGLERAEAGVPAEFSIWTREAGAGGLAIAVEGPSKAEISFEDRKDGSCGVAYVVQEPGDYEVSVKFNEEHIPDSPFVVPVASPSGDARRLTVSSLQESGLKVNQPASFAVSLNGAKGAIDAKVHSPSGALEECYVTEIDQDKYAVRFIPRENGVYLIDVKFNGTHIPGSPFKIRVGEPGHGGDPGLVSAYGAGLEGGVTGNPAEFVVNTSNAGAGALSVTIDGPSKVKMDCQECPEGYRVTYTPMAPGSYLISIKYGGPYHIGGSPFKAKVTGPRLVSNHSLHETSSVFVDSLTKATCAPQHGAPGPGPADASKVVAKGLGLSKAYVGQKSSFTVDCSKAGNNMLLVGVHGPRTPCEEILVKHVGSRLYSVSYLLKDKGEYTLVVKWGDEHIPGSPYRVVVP

Target: T1, FLAG-TurboID-LUZP1 (human) (UniProt Q86V48)
T1 sequence: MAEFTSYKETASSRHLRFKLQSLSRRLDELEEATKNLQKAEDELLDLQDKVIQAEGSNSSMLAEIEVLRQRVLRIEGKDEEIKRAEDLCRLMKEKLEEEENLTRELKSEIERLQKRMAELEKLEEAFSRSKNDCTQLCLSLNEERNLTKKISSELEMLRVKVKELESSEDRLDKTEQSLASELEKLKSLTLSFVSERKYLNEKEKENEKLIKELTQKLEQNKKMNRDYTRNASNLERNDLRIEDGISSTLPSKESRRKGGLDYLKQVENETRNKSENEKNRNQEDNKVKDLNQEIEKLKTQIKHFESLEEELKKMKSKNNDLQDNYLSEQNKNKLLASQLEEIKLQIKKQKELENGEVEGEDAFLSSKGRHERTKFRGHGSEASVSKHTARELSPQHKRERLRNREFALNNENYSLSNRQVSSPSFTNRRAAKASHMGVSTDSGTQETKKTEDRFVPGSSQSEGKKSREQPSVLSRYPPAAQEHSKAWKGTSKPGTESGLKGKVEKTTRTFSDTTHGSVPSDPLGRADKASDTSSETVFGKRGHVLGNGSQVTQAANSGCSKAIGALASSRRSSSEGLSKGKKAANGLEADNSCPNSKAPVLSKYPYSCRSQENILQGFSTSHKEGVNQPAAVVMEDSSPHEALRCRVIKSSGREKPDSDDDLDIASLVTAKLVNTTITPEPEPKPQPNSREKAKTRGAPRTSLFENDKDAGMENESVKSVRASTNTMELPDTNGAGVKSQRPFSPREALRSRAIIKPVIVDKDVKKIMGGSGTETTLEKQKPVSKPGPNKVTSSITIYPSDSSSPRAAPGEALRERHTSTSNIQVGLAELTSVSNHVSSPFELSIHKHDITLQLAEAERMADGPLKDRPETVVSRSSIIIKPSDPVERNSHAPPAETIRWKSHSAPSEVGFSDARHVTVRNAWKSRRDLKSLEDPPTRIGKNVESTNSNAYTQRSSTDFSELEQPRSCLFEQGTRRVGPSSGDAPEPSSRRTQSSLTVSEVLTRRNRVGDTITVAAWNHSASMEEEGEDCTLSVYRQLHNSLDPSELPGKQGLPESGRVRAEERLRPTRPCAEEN
Experiment: proximity labelling

## filamin A (FLNA) (from UniProt P21333 1-2647)
  binding: binds

No constants are given. Whether binding was seen depends on the method and setting. In cells and extracts the contact can be indirect. Here binding means that the protein was enriched with, or labelled near, the bait; the list need not be complete. Sequences can lack the tags named with a protein.
